This is one part of the list.
Assays:
Assay in all cases: log2 fold change, soluble protein after heating vs DMSO (PISA); higher = thermal stabilisation; K562 lysate, 10 uM; active = over 0.2 and 3.5 SD of the protein, either way, in both replicates (recomputed)
alvocidib = compound: CN1CC[C@H](c2c(O)cc(O)c3c(=O)cc(-c4ccccc4Cl)oc23)[C@H](O)C1 [alvocidib]
Outline: (§1)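 Values give the log-two fold change in thermal stability against solvent controls, from duplicates. Crude K562 extract at 1 mg/mL protein, made by dounce homogenisation in PBS pH 7.4 with 1 mM MgCl2, was treated with 10 μM compound for 30 min. After 3 min heating across 48°C-58°C, aliquots were pooled, adjusted to 0.5% NP-40 at 4°C and centrifuged at 21,000xg for 90 min. The supernatant was measured by TMTpro 16plex LC-MS/MS with channel sums equalised.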

Sequences of proteins named here, by UniProt entry; tags and fusion partners are left off. A change or cut given only in a name is not applied to a line headed by its entry.
UniProt Q9P0J7: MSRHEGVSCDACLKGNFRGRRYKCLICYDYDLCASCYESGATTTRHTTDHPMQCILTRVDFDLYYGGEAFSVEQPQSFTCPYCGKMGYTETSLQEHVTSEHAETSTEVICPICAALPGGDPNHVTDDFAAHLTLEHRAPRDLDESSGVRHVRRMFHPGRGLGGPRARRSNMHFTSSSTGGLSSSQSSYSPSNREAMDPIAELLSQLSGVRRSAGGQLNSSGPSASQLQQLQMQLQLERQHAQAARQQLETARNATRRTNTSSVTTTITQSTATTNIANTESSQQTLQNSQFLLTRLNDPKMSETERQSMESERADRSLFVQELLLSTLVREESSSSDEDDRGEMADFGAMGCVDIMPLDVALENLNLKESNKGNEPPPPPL
UniProt Q9BVA0, whole entry, looked up: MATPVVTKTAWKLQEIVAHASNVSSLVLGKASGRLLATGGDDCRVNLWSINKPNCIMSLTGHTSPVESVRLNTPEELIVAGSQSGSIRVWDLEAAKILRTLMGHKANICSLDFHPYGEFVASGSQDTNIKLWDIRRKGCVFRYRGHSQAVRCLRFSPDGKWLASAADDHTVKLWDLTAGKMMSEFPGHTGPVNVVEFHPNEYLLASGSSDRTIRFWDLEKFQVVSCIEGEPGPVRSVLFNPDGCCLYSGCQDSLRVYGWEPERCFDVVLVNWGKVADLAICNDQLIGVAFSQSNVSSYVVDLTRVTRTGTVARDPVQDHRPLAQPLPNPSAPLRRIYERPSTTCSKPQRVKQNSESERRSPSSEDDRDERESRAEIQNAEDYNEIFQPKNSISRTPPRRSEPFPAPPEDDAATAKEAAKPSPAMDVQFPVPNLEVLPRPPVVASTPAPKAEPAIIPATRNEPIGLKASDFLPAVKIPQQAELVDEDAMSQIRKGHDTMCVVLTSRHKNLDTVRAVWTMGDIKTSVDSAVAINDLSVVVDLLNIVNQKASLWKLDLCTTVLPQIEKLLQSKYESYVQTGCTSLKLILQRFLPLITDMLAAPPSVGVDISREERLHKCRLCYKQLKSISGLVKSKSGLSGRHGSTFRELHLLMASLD
UniProt P08648, whole entry, looked up: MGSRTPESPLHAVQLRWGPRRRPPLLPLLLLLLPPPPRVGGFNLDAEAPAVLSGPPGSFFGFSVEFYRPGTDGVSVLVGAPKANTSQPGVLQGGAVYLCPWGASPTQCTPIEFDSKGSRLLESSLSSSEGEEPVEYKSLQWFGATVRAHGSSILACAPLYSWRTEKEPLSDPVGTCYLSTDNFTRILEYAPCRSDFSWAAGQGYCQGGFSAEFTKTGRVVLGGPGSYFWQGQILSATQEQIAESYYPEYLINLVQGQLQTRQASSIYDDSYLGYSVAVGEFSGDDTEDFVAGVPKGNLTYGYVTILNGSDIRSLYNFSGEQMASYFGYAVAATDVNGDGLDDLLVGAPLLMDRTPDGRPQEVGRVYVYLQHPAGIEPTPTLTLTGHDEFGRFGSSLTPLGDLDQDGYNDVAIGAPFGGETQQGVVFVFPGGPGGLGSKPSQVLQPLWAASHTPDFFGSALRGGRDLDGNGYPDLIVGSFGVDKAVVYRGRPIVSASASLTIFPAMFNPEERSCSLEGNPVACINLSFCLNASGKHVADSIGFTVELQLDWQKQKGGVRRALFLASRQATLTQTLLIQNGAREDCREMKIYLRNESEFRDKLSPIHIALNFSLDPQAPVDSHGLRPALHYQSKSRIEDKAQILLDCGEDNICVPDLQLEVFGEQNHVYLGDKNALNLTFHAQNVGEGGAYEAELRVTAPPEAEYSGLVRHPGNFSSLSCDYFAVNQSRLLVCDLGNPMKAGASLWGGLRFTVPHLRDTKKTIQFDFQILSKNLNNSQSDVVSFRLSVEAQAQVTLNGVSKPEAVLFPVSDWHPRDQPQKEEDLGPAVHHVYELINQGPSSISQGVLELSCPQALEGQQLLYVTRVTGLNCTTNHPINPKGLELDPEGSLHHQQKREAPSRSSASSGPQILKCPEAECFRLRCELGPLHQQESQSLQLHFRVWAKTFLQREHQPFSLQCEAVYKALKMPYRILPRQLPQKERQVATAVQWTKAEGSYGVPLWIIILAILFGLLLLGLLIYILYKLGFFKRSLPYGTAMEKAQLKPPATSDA
UniProt Q92551: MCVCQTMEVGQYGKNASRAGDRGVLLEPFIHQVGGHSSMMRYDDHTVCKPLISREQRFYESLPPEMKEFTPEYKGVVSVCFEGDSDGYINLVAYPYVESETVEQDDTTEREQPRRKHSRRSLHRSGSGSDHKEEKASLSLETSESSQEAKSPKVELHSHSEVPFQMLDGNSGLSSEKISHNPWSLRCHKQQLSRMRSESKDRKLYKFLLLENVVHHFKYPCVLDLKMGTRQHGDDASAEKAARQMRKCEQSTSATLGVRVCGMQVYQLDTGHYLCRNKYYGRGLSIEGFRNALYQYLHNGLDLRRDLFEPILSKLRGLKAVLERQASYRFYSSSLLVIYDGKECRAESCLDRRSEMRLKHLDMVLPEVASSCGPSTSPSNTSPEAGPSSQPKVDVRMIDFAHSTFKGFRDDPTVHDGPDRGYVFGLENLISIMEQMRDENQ
UniProt Q9NXV2: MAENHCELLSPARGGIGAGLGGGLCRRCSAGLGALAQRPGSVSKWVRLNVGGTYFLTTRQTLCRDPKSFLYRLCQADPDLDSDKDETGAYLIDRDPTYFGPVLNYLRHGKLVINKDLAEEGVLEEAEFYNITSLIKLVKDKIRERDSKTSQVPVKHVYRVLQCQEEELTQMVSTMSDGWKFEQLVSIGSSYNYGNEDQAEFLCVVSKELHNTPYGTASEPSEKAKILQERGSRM
UniProt Q9NWZ3, whole entry, looked up: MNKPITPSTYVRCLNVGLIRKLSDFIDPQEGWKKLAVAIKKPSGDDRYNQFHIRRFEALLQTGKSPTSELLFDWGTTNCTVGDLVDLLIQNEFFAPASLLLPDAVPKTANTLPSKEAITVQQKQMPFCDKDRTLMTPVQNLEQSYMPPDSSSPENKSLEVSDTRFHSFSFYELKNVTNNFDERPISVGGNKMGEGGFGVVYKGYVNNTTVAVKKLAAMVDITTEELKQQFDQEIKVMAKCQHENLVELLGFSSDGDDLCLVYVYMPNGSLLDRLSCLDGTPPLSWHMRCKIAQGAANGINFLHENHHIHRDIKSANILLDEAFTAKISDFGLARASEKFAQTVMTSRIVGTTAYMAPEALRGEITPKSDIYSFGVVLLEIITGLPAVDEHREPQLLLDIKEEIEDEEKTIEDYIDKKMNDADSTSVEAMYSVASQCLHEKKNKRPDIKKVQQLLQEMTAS
UniProt Q14624: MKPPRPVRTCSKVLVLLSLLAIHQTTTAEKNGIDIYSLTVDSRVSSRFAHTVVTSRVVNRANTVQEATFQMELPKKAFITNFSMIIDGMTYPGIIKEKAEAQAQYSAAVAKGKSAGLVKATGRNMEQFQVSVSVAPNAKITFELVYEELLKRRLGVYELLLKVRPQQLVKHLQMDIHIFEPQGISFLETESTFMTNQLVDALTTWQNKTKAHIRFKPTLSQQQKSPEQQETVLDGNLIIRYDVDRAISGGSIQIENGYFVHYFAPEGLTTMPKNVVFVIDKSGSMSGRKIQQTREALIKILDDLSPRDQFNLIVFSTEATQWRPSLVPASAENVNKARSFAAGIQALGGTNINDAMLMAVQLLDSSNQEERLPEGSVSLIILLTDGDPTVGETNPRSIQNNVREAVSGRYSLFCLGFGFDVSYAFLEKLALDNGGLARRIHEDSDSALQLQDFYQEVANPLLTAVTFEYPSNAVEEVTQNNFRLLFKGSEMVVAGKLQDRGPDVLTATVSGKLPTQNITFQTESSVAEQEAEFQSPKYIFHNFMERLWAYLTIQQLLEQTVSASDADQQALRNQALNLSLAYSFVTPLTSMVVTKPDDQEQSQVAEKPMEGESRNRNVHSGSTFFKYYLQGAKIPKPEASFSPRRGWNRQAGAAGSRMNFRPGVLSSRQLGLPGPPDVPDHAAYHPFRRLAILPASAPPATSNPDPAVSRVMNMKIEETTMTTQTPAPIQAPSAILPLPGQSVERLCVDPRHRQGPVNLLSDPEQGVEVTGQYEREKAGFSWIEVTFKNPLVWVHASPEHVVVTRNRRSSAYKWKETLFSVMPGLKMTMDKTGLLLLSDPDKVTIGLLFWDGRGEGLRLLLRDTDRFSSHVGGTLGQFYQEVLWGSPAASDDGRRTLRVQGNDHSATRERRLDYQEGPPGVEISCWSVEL
UniProt Q13576: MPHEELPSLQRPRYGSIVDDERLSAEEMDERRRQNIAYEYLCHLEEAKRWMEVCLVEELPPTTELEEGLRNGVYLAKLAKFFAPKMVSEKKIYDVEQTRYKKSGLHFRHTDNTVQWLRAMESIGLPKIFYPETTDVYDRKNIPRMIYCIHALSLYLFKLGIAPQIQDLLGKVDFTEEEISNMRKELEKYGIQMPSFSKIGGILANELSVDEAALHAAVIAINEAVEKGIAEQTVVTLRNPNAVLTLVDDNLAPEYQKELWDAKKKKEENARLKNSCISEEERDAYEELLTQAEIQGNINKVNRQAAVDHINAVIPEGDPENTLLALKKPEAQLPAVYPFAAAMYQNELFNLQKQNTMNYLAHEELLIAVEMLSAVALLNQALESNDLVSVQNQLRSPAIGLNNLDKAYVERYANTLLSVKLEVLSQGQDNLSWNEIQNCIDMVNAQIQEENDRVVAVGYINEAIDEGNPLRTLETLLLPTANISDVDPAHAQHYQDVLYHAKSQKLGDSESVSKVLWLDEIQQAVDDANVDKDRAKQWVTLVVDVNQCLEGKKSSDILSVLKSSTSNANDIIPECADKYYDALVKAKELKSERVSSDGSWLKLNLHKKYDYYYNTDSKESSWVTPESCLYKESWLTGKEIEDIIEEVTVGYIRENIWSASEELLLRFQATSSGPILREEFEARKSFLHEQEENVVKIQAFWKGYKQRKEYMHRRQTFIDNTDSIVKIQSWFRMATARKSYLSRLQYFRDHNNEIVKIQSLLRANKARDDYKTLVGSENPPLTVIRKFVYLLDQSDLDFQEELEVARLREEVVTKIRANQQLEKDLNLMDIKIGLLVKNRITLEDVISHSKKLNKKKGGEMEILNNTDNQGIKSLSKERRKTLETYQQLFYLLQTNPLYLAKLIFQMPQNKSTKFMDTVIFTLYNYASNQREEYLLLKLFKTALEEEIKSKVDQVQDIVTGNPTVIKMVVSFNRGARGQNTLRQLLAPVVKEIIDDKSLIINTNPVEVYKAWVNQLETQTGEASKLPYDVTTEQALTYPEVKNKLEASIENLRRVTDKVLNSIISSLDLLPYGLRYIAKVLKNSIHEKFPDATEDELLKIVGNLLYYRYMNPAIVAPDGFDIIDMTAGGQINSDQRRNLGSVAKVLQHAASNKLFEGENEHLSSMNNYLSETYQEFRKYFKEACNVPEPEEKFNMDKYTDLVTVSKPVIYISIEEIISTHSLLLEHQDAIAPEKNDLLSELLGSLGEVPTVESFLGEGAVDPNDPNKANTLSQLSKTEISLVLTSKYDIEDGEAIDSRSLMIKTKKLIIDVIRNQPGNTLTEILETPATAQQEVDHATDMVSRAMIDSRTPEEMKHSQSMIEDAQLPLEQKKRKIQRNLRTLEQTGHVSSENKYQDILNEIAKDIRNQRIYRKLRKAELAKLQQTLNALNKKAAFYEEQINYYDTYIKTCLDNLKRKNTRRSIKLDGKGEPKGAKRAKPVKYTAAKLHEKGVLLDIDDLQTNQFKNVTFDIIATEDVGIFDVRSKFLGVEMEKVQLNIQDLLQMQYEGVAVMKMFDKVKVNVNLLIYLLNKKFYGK
UniProt Q13572: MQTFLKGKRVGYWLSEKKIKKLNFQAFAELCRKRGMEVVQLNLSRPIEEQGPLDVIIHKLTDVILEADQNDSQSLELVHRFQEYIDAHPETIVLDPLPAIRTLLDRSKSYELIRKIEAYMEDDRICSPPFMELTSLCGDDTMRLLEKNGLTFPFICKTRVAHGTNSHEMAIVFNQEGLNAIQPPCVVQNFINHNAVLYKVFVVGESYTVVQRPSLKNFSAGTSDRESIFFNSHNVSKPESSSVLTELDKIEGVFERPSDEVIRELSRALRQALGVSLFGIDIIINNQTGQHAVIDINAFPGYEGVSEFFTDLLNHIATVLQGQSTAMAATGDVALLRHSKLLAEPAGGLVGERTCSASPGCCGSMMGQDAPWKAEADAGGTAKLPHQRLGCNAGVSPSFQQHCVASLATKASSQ
UniProt Q969R8: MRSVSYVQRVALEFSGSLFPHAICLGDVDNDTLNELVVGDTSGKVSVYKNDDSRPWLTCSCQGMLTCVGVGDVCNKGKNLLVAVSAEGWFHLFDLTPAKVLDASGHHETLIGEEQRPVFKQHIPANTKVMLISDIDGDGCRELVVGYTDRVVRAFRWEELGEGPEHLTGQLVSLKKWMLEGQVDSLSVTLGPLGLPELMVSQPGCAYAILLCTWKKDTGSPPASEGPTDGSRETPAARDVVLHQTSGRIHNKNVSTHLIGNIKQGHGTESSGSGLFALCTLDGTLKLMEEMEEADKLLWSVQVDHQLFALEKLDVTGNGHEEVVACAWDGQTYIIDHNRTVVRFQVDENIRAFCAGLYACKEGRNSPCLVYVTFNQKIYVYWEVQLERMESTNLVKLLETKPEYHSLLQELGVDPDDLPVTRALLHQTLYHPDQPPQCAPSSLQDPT

Tubastatin A = compound: CN1CCc2c(c3ccccc3n2Cc2ccc(C(=O)NO)cc2)C1 [Tubastatin A]
Outline: as §1

[1] = compound: CNC(=O)C1=CC=CC=C1NC2=NC(=NC=C2Cl)NC3=C(C=C(C=C3)N4CCOCC4)OC
Outline: as §1

defactinib = compound: CNC(=O)c1ccc(Nc2ncc(C(F)(F)F)c(NCc3nccnc3N(C)S(C)(=O)=O)n2)cc1 [defactinib]
Outline: as §1

[2] = compound: CNc1nc(-c2ccc3c(N)n[nH]c3c2)cc(N2C[C@@H](C(=O)NC3CCCCC3)CC[C@H]2C)n1
Outline: as §1

encorafenib = compound: COC(=O)N[C@@H](C)CNc1nccc(-c2cn(C(C)C)nc2-c2cc(Cl)cc(NS(C)(=O)=O)c2F)n1 [encorafenib]
Outline: as §1

[3] = compound: COC(=O)[C@H](CCSC)NC(=O)C1=C(C=C(C=C1)NC[C@H](CS)N)C2=CC=CC=C2
Outline: as §1

alisertib = compound: COc1cc(Nc2ncc3c(n2)-c2ccc(Cl)cc2C(c2c(F)cccc2OC)=NC3)ccc1C(=O)O [alisertib]
Outline: as §1

[4] = compound: COc1cc2nc(-c3cc(F)ccc3O)nc(N[C@@H]3CNC[C@H]3C(C)(C)O)c2cc1OC
Outline: as §1

gefitinib = compound: COc1cc2ncnc(Nc3ccc(F)c(Cl)c3)c2cc1OCCCN1CCOCC1 [gefitinib]
Outline: as §1

| Target | log2 fold change (alvocidib) | log2 fold change (Tubastatin A) | log2 fold change [1] | log2 fold change (defactinib) | log2 fold change [2] | log2 fold change (encorafenib) | log2 fold change [3] | log2 fold change (alisertib) | log2 fold change [4] | log2 fold change (gefitinib) |
| --- | --- | --- | --- | --- | --- | --- | --- | --- | --- | --- |
| KAZN (UniProt Q674X7) | inactive: -0.078 | inactive: -0.081 | inactive: -0.027 | inactive: -0.036 | inactive: 0 | inactive: -0.039 | inactive: -0.042 | inactive: 0.009 | inactive: -0.02 | inactive: 0.036 |
| ITSN1 isoform 8 (UniProt Q15811) | inactive: 0.019 | inactive: 0.006 | inactive: -0.027 | inactive: 0.01 | inactive: 0.071 | inactive: -0.003 | inactive: 0.001 | inactive: -0.045 | inactive: 0.032 | inactive: -0.026 |
| KAT7 (UniProt O95251) | inactive: -0.048 | inactive: -0.002 | inactive: -0.106 | inactive: 0.008 | inactive: -0.079 | inactive: -0.056 | inactive: 0.011 | inactive: 0.081 | inactive: 0.073 | inactive: 0.094 |
| KDM3B (UniProt Q7LBC6) | inactive: -0.023 | inactive: -0.036 | inactive: 0.006 | inactive: 0.024 | inactive: 0.031 | inactive: 0.052 | inactive: -0.015 | inactive: 0.02 | inactive: 0.008 | inactive: -0.006 |
| KCMF1 (UniProt Q9P0J7) | inactive: -0.089 | inactive: -0.012 | inactive: -0.006 | inactive: 0.004 | inactive: 0.094 | inactive: -0.026 | inactive: 0.046 | inactive: -0.013 | inactive: -0.002 | inactive: 0.009 |
| ITGB1 (UniProt P05556) | inactive: -0.007 | inactive: 0.053 | inactive: -0.017 | inactive: 0.016 | inactive: 0.038 | inactive: -0.004 | inactive: -0.029 | inactive: -0.006 | inactive: 0.047 | inactive: -0.012 |
| JMJD1C (UniProt Q15652) | inactive: -0.011 | inactive: -0.011 | inactive: 0.004 | inactive: 0.037 | inactive: 0.064 | inactive: 0.067 | inactive: -0.001 | inactive: -0.005 | inactive: 0.054 | inactive: 0.034 |
| KBTBD8 (UniProt Q8NFY9) | inactive: -0.028 | inactive: -0.046 | inactive: 0.002 | inactive: -0.007 | inactive: 0.02 | inactive: 0.03 | inactive: 0.005 | inactive: -0.028 | inactive: 0.01 | inactive: -0.001 |
| KCT2 (UniProt Q8NC54) | inactive: -0.137 | inactive: 0.029 | inactive: -0.001 | inactive: -0.012 | inactive: 0.013 | inactive: 0.031 | inactive: -0.035 | inactive: 0.077 | inactive: 0 | inactive: -0.037 |
| KANSL3 (UniProt Q9P2N6) | inactive: -0.146 | inactive: -0.149 | inactive: -0.028 | inactive: 0.172 | inactive: 0.036 | inactive: 0.053 | inactive: 0.023 | inactive: -0.08 | inactive: 0.02 | inactive: -0.014 |
| IRF2 (UniProt P14316) | inactive: -0.036 | inactive: 0.043 | inactive: 0.034 | inactive: 0.052 | inactive: -0.003 | inactive: -0.018 | inactive: -0.045 | inactive: -0.047 | inactive: -0.061 | inactive: -0.035 |
| KATNB1 (UniProt Q9BVA0) | inactive: -0.039 | inactive: 0 | inactive: -0.001 | inactive: -0.01 | inactive: -0.056 | inactive: 0.002 | inactive: 0.032 | inactive: -0.017 | inactive: -0.051 | inactive: -0.074 |
| ISYNA1 (UniProt Q9NPH2) | inactive: -0.039 | inactive: 0.032 | inactive: -0.019 | inactive: -0.017 | inactive: -0.021 | inactive: 0.016 | inactive: -0.027 | inactive: -0.038 | inactive: 0.027 | inactive: 0.033 |
| KAZN isoform 3 (UniProt Q674X7) | inactive: 0.012 | inactive: 0.195 | inactive: -0.005 |  |  |  |  |  |  |  |
| KCTD10 (UniProt Q9H3F6) | inactive: 0.065 | inactive: -0.008 | inactive: -0.122 | inactive: -0.096 | inactive: -0.042 | inactive: -0.008 | inactive: 0.103 | inactive: -0.031 | inactive: 0.09 | inactive: -0.035 |
| ITGA5 (UniProt P08648) | inactive: -0.026 | inactive: 0.032 | inactive: 0.001 | inactive: -0.013 | inactive: 0.004 | inactive: 0.027 | inactive: -0.036 | inactive: 0.001 | inactive: -0.004 | inactive: 0.019 |
| IP6K1 (UniProt Q92551) | inactive: -0.097 | inactive: -0.126 | inactive: 0.088 | inactive: -0.041 | inactive: -0.038 | inactive: 0 | inactive: 0.235 | inactive: -0.045 | inactive: 0.068 | inactive: -0.018 |
| INTS14 (UniProt Q96SY0) | inactive: -0.001 | inactive: -0.066 | inactive: 0.032 | inactive: 0.025 | inactive: 0.02 | inactive: 0.006 | inactive: -0.1 | inactive: -0.018 | inactive: 0.015 | inactive: -0.003 |
| INTS2 (UniProt Q9H0H0) | inactive: 0.014 | inactive: -0.001 | inactive: 0.022 | inactive: 0.065 | inactive: 0.091 | inactive: -0.057 | inactive: 0.097 | inactive: -0.001 | inactive: 0.165 | inactive: -0.039 |
| KCTD5 (UniProt Q9NXV2) | inactive: -0.073 | inactive: -0.001 | inactive: 0.061 | inactive: -0.001 | inactive: 0.04 | inactive: 0.019 | inactive: -0.041 | inactive: -0.043 | inactive: 0.157 | inactive: -0.11 |
| KBTBD4 isoform 2 (UniProt Q9NVX7) | inactive: -0.064 | inactive: -0.048 | inactive: -0.016 | inactive: 0.024 | inactive: 0.193 | inactive: 0.048 | inactive: -0.08 | inactive: -0.098 | inactive: -0.046 | inactive: 0.121 |
| ISCA2 (UniProt Q86U28) | inactive: 0 | inactive: -0.004 | inactive: 0.017 | inactive: 0 | inactive: -0.004 | inactive: 0.064 | inactive: -0.003 | inactive: -0.057 | inactive: -0.1 | inactive: 0.074 |
| IRAK4 (UniProt Q9NWZ3) | inactive: 0.01 | inactive: -0.083 | active: 0.261 | inactive: 0.145 | inactive: -0.018 | inactive: -0.032 | inactive: 0.032 | inactive: 0.006 | inactive: 0.111 | inactive: 0.045 |
| ITIH4 (UniProt Q14624) | inactive: 0.028 | inactive: 0.1 | inactive: -0.024 | inactive: 0.057 | inactive: 0.204 | inactive: 0.004 | inactive: -0.023 |  |  |  |
| KDM1B (UniProt Q8NB78) | inactive: -0.066 | inactive: 0.05 | inactive: 0.005 | inactive: 0.088 | inactive: 0.021 | inactive: 0 | inactive: 0.119 | inactive: 0.087 | inactive: -0.009 | inactive: -0.02 |
| IQGAP2 (UniProt Q13576) | inactive: 0.031 | inactive: -0.111 | inactive: 0.03 | inactive: 0.006 | inactive: -0.025 | inactive: 0.039 | inactive: 0.101 | inactive: -0.014 | inactive: 0.002 | inactive: -0.028 |
| ITPK1 (UniProt Q13572) | inactive: 0.053 | inactive: -0.13 | inactive: -0.039 | inactive: -0.036 | inactive: 0.034 | inactive: -0.132 | inactive: -0.022 | inactive: -0.05 | inactive: -0.036 | inactive: 0.026 |
| ITFG2 (UniProt Q969R8) | inactive: -0.027 | inactive: -0.076 | inactive: -0.003 | inactive: 0 | inactive: 0.013 | inactive: 0.008 | inactive: 0.003 | inactive: 0.02 | inactive: 0.016 | inactive: -0.003 |

A second format for some results above:
Target | log2 fold change (alvocidib) | log2 fold change (Tubastatin A) | log2 fold change [1] | log2 fold change (defactinib) | log2 fold change [2] | log2 fold change (encorafenib) | log2 fold change [3] | log2 fold change (alisertib) | log2 fold change [4] | log2 fold change (gefitinib)
IP6K1 (UniProt Q92551) | inactive: -0.097 | inactive: -0.126 | inactive: 0.088 | inactive: -0.041 | inactive: -0.038 | inactive: 0 | inactive: 0.235 | inactive: -0.045 | inactive: 0.068 | inactive: -0.018
ISCA2 (UniProt Q86U28) | inactive: 0 | inactive: -0.004 | inactive: 0.017 | inactive: 0 | inactive: -0.004 | inactive: 0.064 | inactive: -0.003 | inactive: -0.057 | inactive: -0.1 | inactive: 0.074

— the supplement of paper PMC10849652
